According to the supplement of paper PMC12823440, “Inhibitors supercharge kinase turnover through native proteolytic circuits” (Nature, 2025):
Counter-ions that a name gives are not always drawn. The list shows a part of the results. Hit calls seldom repeat between salt and free forms of one compound.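 In K562 cells expressing nanoluciferase-fused kinases, luminescence was recorded at 4 h intervals between 2 and 18 h, normalized as percent of control with DMSO at 100% and a positive control at 0%. A significant (2 sigma) signal drop marks a time point as decreased. The authors' rule for a hit is not shown and takes in more than the number of time points.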

Amino acid sequences for entries named in this document (tags omitted). A change or cut given only in a name is not applied to a line headed by its entry.
UniProt Q9UQM7, whole entry: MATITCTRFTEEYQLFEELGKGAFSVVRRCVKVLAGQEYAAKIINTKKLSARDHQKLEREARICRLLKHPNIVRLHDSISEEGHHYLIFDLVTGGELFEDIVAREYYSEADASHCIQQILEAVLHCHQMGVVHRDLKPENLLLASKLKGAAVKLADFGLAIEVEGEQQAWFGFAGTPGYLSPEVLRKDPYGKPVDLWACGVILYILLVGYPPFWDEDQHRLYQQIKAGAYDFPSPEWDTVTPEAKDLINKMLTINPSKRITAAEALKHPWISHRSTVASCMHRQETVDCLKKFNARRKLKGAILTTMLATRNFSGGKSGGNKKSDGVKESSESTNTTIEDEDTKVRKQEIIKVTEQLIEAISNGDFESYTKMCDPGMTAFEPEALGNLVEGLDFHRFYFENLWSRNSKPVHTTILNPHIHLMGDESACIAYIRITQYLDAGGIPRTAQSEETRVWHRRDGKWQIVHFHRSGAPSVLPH
UniProt Q13555: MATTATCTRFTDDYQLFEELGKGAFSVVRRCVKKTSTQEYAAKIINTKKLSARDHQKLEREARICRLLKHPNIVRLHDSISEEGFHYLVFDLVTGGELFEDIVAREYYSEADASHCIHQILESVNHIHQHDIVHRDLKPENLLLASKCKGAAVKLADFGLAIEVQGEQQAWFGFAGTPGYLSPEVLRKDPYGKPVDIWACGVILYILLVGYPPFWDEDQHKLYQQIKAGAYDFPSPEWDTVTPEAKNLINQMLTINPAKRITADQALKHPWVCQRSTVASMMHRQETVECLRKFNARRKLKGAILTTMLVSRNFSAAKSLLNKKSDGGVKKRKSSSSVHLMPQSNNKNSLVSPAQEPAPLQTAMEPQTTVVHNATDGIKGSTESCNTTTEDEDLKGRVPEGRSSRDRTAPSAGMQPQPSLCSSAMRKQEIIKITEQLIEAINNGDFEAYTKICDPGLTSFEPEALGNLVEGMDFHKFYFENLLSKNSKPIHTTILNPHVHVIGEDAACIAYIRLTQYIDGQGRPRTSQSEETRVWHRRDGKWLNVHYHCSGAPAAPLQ
UniProt Q00526: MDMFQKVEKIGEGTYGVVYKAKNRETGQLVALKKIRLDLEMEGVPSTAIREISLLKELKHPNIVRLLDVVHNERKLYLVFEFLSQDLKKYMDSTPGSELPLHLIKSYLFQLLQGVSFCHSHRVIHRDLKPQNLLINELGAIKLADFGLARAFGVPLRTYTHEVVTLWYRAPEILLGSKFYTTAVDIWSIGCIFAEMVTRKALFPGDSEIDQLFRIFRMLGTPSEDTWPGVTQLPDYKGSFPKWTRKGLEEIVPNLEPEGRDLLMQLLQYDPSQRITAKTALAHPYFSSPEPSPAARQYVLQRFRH
UniProt Q00535, whole entry, looked up: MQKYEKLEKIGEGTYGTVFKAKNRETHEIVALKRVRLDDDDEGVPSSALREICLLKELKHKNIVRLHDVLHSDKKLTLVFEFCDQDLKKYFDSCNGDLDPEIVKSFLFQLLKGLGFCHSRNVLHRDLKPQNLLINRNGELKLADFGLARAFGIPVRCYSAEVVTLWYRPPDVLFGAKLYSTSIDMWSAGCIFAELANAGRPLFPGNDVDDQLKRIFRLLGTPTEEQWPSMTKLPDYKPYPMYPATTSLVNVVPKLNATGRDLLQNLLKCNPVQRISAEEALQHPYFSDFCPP
UniProt Q00534, whole entry: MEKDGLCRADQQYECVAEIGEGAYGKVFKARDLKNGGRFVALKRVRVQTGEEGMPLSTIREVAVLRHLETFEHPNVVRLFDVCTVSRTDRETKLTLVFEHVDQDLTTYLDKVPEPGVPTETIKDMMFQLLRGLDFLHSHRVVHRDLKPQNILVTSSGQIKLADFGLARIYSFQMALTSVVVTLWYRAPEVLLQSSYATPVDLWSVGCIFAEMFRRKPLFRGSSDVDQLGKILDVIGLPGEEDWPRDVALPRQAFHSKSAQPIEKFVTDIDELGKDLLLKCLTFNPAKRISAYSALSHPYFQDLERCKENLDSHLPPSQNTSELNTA
UniProt O96017, whole entry: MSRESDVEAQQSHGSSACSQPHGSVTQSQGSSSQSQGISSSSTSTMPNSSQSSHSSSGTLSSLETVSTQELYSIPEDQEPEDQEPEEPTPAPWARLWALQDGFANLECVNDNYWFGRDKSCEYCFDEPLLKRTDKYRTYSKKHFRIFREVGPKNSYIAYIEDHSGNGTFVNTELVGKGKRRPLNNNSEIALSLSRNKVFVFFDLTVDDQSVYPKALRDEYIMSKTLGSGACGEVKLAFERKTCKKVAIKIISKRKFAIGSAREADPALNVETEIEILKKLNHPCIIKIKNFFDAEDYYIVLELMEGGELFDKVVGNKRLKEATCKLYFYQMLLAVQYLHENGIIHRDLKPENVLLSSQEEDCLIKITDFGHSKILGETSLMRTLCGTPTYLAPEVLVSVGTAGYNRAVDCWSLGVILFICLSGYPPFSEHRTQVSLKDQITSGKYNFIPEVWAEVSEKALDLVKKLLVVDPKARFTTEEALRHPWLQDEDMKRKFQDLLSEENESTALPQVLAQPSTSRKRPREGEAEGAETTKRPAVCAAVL
UniProt P07333, whole entry: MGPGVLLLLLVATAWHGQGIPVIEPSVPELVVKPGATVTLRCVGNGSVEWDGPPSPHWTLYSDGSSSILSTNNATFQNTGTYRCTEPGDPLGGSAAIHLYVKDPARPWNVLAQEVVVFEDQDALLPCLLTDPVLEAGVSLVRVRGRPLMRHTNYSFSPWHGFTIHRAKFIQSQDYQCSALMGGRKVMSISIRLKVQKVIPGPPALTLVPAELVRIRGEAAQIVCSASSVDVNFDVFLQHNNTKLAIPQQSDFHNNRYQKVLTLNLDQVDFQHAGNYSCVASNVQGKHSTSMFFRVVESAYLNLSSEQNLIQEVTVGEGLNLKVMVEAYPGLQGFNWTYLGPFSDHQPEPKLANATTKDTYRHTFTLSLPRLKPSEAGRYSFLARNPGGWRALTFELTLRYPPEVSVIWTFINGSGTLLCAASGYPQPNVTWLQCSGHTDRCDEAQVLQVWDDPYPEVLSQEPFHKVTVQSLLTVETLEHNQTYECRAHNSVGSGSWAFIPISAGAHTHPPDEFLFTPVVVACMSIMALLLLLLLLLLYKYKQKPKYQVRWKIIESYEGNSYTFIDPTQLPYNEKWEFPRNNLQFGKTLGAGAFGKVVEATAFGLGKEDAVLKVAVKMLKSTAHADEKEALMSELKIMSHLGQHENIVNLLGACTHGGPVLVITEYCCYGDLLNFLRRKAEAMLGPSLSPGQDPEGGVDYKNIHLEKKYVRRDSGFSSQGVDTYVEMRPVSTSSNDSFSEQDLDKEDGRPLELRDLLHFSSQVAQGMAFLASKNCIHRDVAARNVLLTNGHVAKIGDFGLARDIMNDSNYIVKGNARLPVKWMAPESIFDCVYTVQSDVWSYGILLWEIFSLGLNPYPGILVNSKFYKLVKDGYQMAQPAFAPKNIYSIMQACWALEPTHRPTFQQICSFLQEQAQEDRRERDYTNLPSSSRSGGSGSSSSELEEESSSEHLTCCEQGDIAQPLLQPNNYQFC
UniProt P41240: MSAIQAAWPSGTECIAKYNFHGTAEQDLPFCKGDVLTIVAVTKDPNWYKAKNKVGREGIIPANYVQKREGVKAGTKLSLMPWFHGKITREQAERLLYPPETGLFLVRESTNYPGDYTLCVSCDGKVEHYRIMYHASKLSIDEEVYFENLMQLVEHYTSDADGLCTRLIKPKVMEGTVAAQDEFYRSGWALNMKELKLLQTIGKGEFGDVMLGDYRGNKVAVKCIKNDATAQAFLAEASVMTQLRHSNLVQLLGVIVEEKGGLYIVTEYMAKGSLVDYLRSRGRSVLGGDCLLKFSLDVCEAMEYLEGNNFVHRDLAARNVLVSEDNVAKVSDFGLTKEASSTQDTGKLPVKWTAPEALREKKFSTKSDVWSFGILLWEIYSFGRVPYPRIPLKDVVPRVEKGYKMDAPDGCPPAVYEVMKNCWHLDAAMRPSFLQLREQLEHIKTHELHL
UniProt P48729: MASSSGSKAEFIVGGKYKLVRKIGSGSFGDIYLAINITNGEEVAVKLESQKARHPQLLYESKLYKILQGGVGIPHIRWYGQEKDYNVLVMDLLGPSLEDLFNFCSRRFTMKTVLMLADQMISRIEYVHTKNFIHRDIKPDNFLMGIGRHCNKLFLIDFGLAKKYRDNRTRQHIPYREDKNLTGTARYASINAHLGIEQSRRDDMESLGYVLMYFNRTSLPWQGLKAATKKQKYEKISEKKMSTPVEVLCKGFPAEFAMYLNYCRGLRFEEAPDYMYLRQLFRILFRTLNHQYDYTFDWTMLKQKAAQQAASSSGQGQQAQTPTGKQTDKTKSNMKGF
UniProt Q08345: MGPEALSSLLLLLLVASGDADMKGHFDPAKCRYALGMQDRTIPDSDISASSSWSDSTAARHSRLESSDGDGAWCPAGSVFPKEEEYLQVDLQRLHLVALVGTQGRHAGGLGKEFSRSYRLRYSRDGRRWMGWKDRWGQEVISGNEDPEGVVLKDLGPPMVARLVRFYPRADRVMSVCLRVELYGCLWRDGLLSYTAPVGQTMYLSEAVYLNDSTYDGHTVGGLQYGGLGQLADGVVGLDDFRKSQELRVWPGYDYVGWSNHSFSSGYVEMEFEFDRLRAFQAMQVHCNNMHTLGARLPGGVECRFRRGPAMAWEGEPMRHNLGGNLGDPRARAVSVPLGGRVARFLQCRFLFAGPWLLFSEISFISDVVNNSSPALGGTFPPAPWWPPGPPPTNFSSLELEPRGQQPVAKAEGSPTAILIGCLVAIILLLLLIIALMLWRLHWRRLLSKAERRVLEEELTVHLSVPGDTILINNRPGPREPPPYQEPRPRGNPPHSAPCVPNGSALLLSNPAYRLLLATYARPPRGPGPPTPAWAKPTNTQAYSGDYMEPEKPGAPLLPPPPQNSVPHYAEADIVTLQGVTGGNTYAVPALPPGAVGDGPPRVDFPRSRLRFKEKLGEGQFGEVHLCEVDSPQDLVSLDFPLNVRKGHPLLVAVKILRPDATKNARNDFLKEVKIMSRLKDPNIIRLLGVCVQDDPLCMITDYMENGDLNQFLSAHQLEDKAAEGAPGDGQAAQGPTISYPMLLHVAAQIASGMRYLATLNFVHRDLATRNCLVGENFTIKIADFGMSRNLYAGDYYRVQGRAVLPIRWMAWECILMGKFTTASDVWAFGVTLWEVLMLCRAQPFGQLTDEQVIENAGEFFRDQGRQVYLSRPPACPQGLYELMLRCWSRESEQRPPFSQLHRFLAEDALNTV
UniProt Q9Y463, whole entry, looked up: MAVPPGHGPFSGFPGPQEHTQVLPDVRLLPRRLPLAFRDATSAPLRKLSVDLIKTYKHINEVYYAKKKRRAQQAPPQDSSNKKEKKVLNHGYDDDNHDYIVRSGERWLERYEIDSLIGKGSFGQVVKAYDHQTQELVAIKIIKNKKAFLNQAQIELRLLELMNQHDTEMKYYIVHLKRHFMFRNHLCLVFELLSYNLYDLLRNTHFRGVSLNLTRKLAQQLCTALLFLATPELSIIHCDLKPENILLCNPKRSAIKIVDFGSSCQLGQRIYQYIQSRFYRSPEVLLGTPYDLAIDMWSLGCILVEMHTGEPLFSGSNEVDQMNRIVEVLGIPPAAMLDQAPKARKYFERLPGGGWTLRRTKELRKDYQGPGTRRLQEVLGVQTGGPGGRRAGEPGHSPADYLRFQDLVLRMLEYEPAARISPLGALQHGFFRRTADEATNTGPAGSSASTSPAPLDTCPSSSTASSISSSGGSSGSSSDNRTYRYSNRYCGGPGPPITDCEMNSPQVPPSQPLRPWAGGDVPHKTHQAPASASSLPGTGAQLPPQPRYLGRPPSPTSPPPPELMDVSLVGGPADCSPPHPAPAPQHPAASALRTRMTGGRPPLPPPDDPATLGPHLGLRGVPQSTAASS
UniProt Q92630: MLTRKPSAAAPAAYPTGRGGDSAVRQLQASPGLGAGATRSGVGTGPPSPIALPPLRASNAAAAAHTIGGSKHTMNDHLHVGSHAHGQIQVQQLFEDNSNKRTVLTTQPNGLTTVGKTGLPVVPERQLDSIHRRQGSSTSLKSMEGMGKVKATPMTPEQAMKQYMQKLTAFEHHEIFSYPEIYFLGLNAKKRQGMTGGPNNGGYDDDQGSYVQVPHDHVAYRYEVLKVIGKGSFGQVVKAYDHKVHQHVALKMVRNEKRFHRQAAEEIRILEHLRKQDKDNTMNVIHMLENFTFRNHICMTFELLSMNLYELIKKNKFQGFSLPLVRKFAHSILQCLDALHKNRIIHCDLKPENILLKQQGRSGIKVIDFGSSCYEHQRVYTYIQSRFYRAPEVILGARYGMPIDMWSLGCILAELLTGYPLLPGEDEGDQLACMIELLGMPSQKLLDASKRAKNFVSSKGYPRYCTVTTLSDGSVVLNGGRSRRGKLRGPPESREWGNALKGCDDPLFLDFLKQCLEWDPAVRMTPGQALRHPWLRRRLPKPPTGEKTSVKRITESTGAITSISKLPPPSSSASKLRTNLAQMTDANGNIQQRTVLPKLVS

Assays:
Assay in all cases: number of time points (of 5) at which kinase-Nluc abundance scored as decreased, DMSO-normalised (count); higher = more persistent destabilization
Conditions in all cases: K562; 2-18 h
CAMK2A = CAMK2A (UniProt Q9UQM7)
CAMK2G = CAMK2G (UniProt Q13555)
CDK10 = CDK10 (UniProt Q15131)
CDK2 = CDK2 (UniProt P24941)
CDK3 = CDK3 (UniProt Q00526)
CDK5 = CDK5 (UniProt Q00535)
CDK6 = CDK6 (UniProt Q00534)
CHEK2 = CHEK2 (UniProt O96017)
CSF1R = CSF1R (UniProt P07333)
CSK = CSK (UniProt P41240)
CSNK1A1 = CSNK1A1 (UniProt P48729)
CSNK1D = CSNK1D (UniProt P48730)
DDR1 = DDR1 (UniProt Q08345)
DYRK1B = DYRK1B (UniProt Q9Y463)
DYRK2 = DYRK2 (UniProt Q92630)
EGFR = EGFR (UniProt P00533)
EGFR_G719S = EGFR_G719S (UniProt P00533)
EGFR_G719S_T790M = EGFR_G719S_T790M (UniProt P00533)
EGFR_L718V = EGFR_L718V (UniProt P00533)
EGFR_L858R = EGFR_L858R (UniProt P00533)

Measured: number of time points

COc1nc(-c2cccc3c2OCCO3)ccc1Nc1ccc(CN(C)C)cc1 [RAS inhibitor Abd-7] (10 µM)
0: all assays above

CC(C)(C)C(=O)N1N=CC[C@H]1c1ccccc1 (10 µM)
0: all assays above

O=C(NOCCO)c1ccc2cncn2c1Nc1ccc(I)cc1F (10 µM)
1: CAMK2G | EGFR_G719S_T790M | EGFR_L858R
2: DYRK2
0: all other assays above

COc1cc2ncnc(Nc3ccc(NC(=O)c4ccccc4)cc3)c2cc1OC [Aurora kinase inhibitor-2] (2.5 µM)
0: all assays above

CCN(C)C(=O)c1ccc2c(C(=Nc3ccc(CN4CCCCC4)cc3)c3ccccc3)c(O)[nH]c2c1 (2.5 µM)
0: all assays above

CCCNC(=O)c1cn2ncnc(Nc3cc(C(=O)NC4CC4)ccc3C)c2c1C (10 µM)
0: all assays above

CC[C@H](C)[C@H](NC(=O)[C@H](CCC(=O)O)NC(=O)[C@H](CCCN=C(N)N)NC(=O)[C@H](CCCN=C(N)N)NC(=O)[C@@H](N)CCCCN)C(=O)N[C@@H](CC(C)C)C(=O)N[C@@H](CO)C(=O)N[C@@H](CCCN=C(N)N)C(=O)N[C@@H](CCCN=C(N)N)C(=O)N1CCC[C@H]1C(=O)N[C@@H](CO)C(=O)N[C@@H](Cc1ccc(O)cc1)C(=O)N[C@@H](CCCN=C(N)N)C(=O)O [CREBtide] (10 µM)
0: all assays above

COc1ccc2c(c1)c(C1=C(c3c[nH]c4ccccc34)C(=O)NC1=O)cn2CCCN(C)C (10 µM)
0: all assays above

O[C@H]1CC[C@H](Nc2ncc3nc(Nc4c(F)cc(F)cc4F)n([C@H]4CCOC4)c3n2)CC1 [Tanzisertib] (10 µM)
0: all assays above

[O-][n+]1cccc(-c2nc3c(Cl)cccc3cc2[C@@H](Nc2ncnc3cccnc23)C(F)(F)F)c1 [Seletalisib] (10 µM)
0: all assays above

C[C@@H]1C[C@H]2O[C@@]3(O[C@@H]2C(C)(C)O)[C@H](O)[C@@]2(C)[C@@H]4CC[C@H]5C(C)(C)[C@@H](O[C@@H]6OC[C@H](O)[C@H](O)[C@H]6O)CC[C@@]56C[C@@]46CC[C@]2(C)[C@@H]13 [Cimiracemoside C] (10 µM)
0: all assays above

O=c1cc(-c2ccc(O)c(O)c2O)oc2ccccc12 (10 µM)
0: all assays above

c1ccc(-c2oc3ncnc(NC[C@@H]4CCCO4)c3c2-c2ccccc2)cc1 (2.5 µM)
0: all assays above

COC(=O)[C@@]1(C)CC[C@]2(C(=O)O)CC[C@]3(C)C(=CC[C@@H]4[C@@]5(C)C[C@H](O)[C@H](O[C@@H]6OC[C@@H](O[C@@H]7O[C@H](CO)[C@@H](O)[C@H](O)[C@H]7O)[C@H](O)[C@H]6O)[C@@](C)(CO)[C@@H]5CC[C@]43C)[C@@H]2C1 [Esculentoside A] (10 µM)
0: all assays above

CNC(=O)c1cc(Oc2ccc3nc(N[C@@H]4CCCC[C@H]4O)sc3c2)ccn1 (10 µM)
0: all assays above

Cn1cc(-c2cc3c(N4CCN(c5ncc([C@@](C)(N)c6ccc(F)cc6)cn5)CC4)ncnn3c2)cn1 [Avapritinib] (2.5 µM)
0: all assays above

COc1ccc(CNc2nc(N(CCO)CCO)nc3c2ncn3C(C)C)cc1 (2.5 µM)
0: all assays above

CC(CCc1ccccn1)(CCc1ccccn1)C(=O)c1ccccc1 (10 µM)
0: all assays above

CCC(C)(C)C(=O)N(O)Cc1ccccc1 (10 µM)
0: all assays above

Sorted by SMILES length (high to low): some entries from above
CCCNC(=O)c1cn2ncnc(Nc3cc(C(=O)NC4CC4)ccc3C)c2c1C (10 µM)
0: all assays above

CC(CCc1ccccn1)(CCc1ccccn1)C(=O)c1ccccc1 (10 µM)
0: all assays above

O=C(NOCCO)c1ccc2cncn2c1Nc1ccc(I)cc1F (10 µM)
1: CAMK2G | EGFR_G719S_T790M | EGFR_L858R
2: DYRK2
0: all other assays above

(further entries)

N=C(N)NC(=N)NCCc1ccccc1 [Phenformin (hydrochloride)] (10 µM)
0: all assays above

Cc1cc2cc(Oc3ccnc(Nc4cccc(CS(=O)(=O)NCCN(C)C)c4)n3)ccc2[nH]1 [Sulfatinib] (10 µM)
2: DDR1
3: DYRK2
0: all other assays above

COC1(C(=O)N[C@@H](C)c2ccc(-n3cc(F)cn3)nc2)CCC(c2nc(C)cc(Nc3cc(C)[nH]n3)n2)CC1 (stereo partly drawn) [trans-Pralsetinib] (2.5 µM)
0: all assays above

N#C/C(=C\c1ccc2oc(=O)[nH]c2c1)C(=O)c1ccc(O)c(O)c1 (10 µM)
0: all assays above

Cn1cc(-c2ccc(F)c(C(F)(F)F)c2)nc1C1CCN(c2ncnc3[nH]ncc23)CC1 (10 µM)
0: all assays above

CCCCNC(=N)NC(=N)N [Buformin (hydrochloride)] (2.5 µM)
0: all assays above

C[C@@H]1O[C@@H](OC[C@H]2O[C@@H](Oc3cc(O)c4c(c3)O[C@H](c3ccc(O)cc3)CC4=O)[C@H](O)[C@@H](O)[C@@H]2O)[C@H](O)[C@H](O)[C@H]1O [Narirutin] (10 µM)
0: all assays above

O=C1NCCCc2c1oc1ccc(O)cc21 (10 µM)
0: all assays above

COc1ccc2c(Oc3ccc(NC(=O)c4c(C)n(CC(C)(C)O)n(-c5ccccc5)c4=O)cc3F)ccnc2c1 (2.5 µM)
1: DYRK1B
3: DYRK2
0: all other assays above

O=S(=O)(c1cccc2cnccc12)N1CCNCC1 (10 µM)
0: all assays above

Cc1cnc(Nc2ccc(N3CCN(C)CC3)cc2)nc1Nc1cccc(S(=O)(=O)NC(C)(C)C)c1 (2.5 µM)
1: EGFR_L858R
0: all other assays above

c1cc(-c2cnn3cc(-c4ccc(N5CCNCC5)cc4)cnc23)c2cccnc2c1 (2.5 µM)
4: DDR1
1: CSNK1A1
2: CDK10 | EGFR_G719S
0: all other assays above

CNC(=O)c1ccc(-c2cnc3cnc(-c4ccccc4)cn23)cc1 (10 µM)
0: all assays above

CCOc1nc(Nc2ccc(C(=O)N3CCOCC3)cc2OC)nc2[nH]ccc12 [LRRK2 inhibitor 1] (2.5 µM)
0: all assays above

C[C@@H]1COCCN1c1cc(C2([S@](C)(=N)=O)CC2)nc(-c2cc[nH]c3nccc2-3)n1 [Ceralasertib] (2.5 µM)
0: all assays above

CC1(COc2ccc3c(c2)ncn3-c2ccc3cccc(N4CCC(N)CC4)c3n2)COC1 [Crenolanib] (2.5 µM)
3: CSF1R | DDR1
1: CHEK2 | DYRK2
2: CDK10
0: all other assays above

CC[C@@H]1C(=O)N(C)c2cnc(Nc3ccc(C(=O)N[C@H]4CC[C@H](N5CCN(CC6CC6)CC5)CC4)cc3OC)nc2N1C(C)C [Volasertib] (2.5 µM)
0: all assays above

O=C1NC(=O)C(=Cc2ccc3c(c2)OCO3)S1 (10 µM)
0: all assays above

Nc1cc(C(F)F)c(-c2nc(N3C4CCC3COC4)nc(N3C4CCC3COC4)n2)cn1 (2.5 µM)
3: EGFR_G719S
4: CSNK1A1
0: all other assays above

C=CC(=O)Nc1cccc(Oc2nc(Nc3ccc(N4CCN(C)CC4)cc3)nc3ccoc23)c1 [Poseltinib] (10 µM)
0: all assays above

C=CC(=O)N1CCC[C@@H](n2nc(C(=O)Nc3ccc(CC(=O)N(C)C)c(C)c3C)c3c(N)ncnc32)C1 (10 µM)
0: all assays above

Cc1cc(Nc2nc(N[C@@H](C)c3ncc(F)cn3)ncc2Cl)[nH]n1 (10 µM)
0: all assays above

N#C/C(=C(/N)Sc1ccc(N)cc1)c1ccccc1C(F)(F)F (10 µM)
0: all assays above

Nc1cc(C(F)(F)F)c(-c2nc(N3CCOCC3)nc(N3CCOCC3)n2)cn1 [Bimiralisib] (10 µM)
1: CHEK2 | EGFR_G719S_T790M
4: DYRK2
3: CAMK2G | DDR1
0: all other assays above

CN1CCN(CCCNc2ncc(Cl)c(-c3cc4c(C(=O)NC5CC5)cccc4s3)n2)CC1 (10 µM)
0: all assays above

C[C@@H]1COCCN1c1cc(=O)n2c(n1)N(Cc1cncc(Cl)c1)[C@H](C(F)(F)F)CC2 (10 µM)
1: CHEK2
3: DYRK2
0: all other assays above

C[C@@H]1CCc2ncc(F)cc2[C@H]2CCCN2c2ccn3ncc(c3n2)C(=O)N1 [Selitrectinib] (10 µM)
0: all assays above

CCOC(=O)c1c2c3c(cccc3[nH]c1=O)C(=O)c1ccccc1-2 (10 µM)
0: all assays above
